Data: patent US20250213694A1 (SHANGHAI SIMNOVA BIOTECHNOLOGY, published 2025)
No constants are given. Whether binding was seen depends on the method and setting. A result given as binding can be weak or reduced; the word gives no strength.

Biological target: monkey BCMA protein (monkey)
Experiment: phage library panning and clone identification

binding: binds
B1: VHH2 (VHH)
VHH: QVQLVESGGGLVQSRGSLRLSCAASESISSIHIMAWYRRAPGKQRELVAGIRNDGSTVYADSAKGRFTISRDNAKNTVYLQMNSLKPEDTAVYYCNADQGFGSYSEWERRSRWGQGTEVTVSS
